In PubChem BioAssay AID504834 (National Center for Advancing Translational Sciences (NCATS), 2011):
Among all 320,000 compounds or so, about 22,000 (6.9%) were called active. Inconclusive results, whose numbers are uncertain, are shown with a selection of clear calls. Calls come from the whole dose curve; as a rule, active = well fitted inhibition curve with a large enough effect; inconclusive = small, poorly fitted or top-dose-only effect, or another doubt; inactive = no such curve, though single readings can be large or run the other way. Potencies beside an inconclusive call are fits to weak or partial responses and may not hold up.

Test: Primary qHTS for delayed death inhibitors of the malarial parasite plastid, 96 hour incubation
Conditions: P. falciparum luciferase reporter growth; series mostly up to 28.7 µM
Outline: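 Erythrocytes infected with luciferase-expressing P. falciparum were dispensed at 2% hematocrit and 0.05% parasitemia (final), then incubated with compounds 96 hours at 37 C in 5% CO2. Luminescence after detection reagent addition reported growth.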
Potency is the fitted concentration of half-maximal effect.

SMILES | Potency
O=C(/C=C/c1ccc(Br)o1)Nc1nnc(C2CC2)s1 | inconclusive: 4.65 µM [inhibitor, partial curve]
O=c1cc(NCc2ccco2)[nH]c(=O)n1-c1ccc(Br)cc1 | active: 9.28 µM
CN1CCN(C(=O)c2ccc3c(c2)N(Cc2ccc(F)cc2)C(=O)c2ccccc2S3=O)CC1 (centres undefined) | inactive
CCOC(=O)Cn1c(S(=O)(=O)Cc2cccc(F)c2)nc(-c2ccccc2)c1-c1ccccc1 | active: 5.86 µM
CCOCCCN1C(=O)CN(C2CCC(C)CC2)C(=O)C1c1ccc(C)cc1 (centres undefined) | inactive
COc1cc2c(cc1OC)C(C)N(C(=O)Cc1ccc(C(F)(F)F)cc1)CC2 (centres undefined) | inconclusive: 9.28 µM [inhibitor, partial curve]
Cc1nnsc1C(=O)Nc1ccc(S(=O)(=O)N2CCCC(C)C2)cc1 (centres undefined) | inconclusive: 18.5 µM [inhibitor, single point]
Cc1ccc(-c2nc3ncccc3o2)cc1NC(=O)C(C)C | inactive
O=C(NCc1cccnc1)/C(=N\O)c1ccccc1 | inconclusive: 18.5 µM [inhibitor, single point]
Fc1ccccc1COc1ccc(/C=N/NC(=S)NCc2ccccc2)cc1 | inconclusive: 18.5 µM [inhibitor, single point]
Brc1cccc(-c2nnc(SCc3ccon3)n2-c2ccccc2)c1 | inconclusive: 10.4 µM [inhibitor, single point]
CC(C)C(C)(NC(=O)c1cccn(Cc2ccc3c(c2)OC(F)(F)O3)c1=O)C(N)=O (centres undefined) | inconclusive: 3.7 µM [inhibitor, single point]
COc1ccc(C(=O)N2CCN(c3ccc([N+](=O)[O-])c(NCCc4ccc(OC)c(OC)c4)c3)CC2)cc1 | active: 4.65 µM
CCN1C(=O)[C@H]2[C@@H](c3ccc(C)cc3)N3C(=O)N(c4ccccc4)C(=O)[C@@]3(Cc3ccccc3)[C@H]2C1=O | inconclusive: 11.7 µM [inhibitor, single point]
Cc1cc(O)c(C(=O)/C=C/c2ccccc2)c(=O)o1 | inconclusive: 8.28 µM [inhibitor, partial curve, poor fit]
CC(=O)c1ccc(NC(=O)CSc2nnc(-c3ccncc3)o2)cc1 | inconclusive: 3.29 µM [inhibitor, partial curve]
COc1ccc2[nH]c(C)c(CCNCc3cn(C)c4ccccc34)c2c1 | active: 5.22 µM
Cn1c(C(=O)O)c(CC(=O)Nc2ccccc2F)c2ccccc21 | inconclusive: 18.5 µM [inhibitor, single point]
O=C(/C=C/c1ccccc1Cl)Nc1cccc(O)c1 | inactive

Individual results from above:
For Potency, `CCOCCCN1C(=O)CN(C2CCC(C)CC2)C(=O)C1c1ccc(C)cc1` (centres undefined) shows inactive
For Potency, `O=c1cc(NCc2ccco2)[nH]c(=O)n1-c1ccc(Br)cc1` shows active: 9.28 µM
